From patent US20200199537A1, “LIVER ORGANOID COMPOSITIONS AND METHODS OF MAKING AND USING SAME” (Children's Hospital Medical Center, priority 2017, published 2020)

Tested on: human liver organoids

CCCCc1oc2ccccc2c1C(=O)c1cc(I)c(OCCN(CC)CC)c(I)c1 [amiodarone]
toxicity to organoids / viability within the tested dose range: significantly toxic
